# Reference: publication PMC12431657, “Discovery and mechanistic insights of dibenzoylmethane as a broad spectrum inhibitor of coronavirus” (PLOS Pathogens, 2025)
# Structures can show the parent of a compound that is named as a salt. Where two headings read alike, the source gives them in different places. Out of some 3,300 compounds screened, about 95 (3%) showed an effect of 50% or more. The list shows a part of the results.
# Tested on: HCoV-229E
# Parameters: species or system Huh-7; HTS, protection from HCoV-229E induced cell death, luminescent cell viability (CellCounting-Lite 2.0), inhibition rate
# Details: 24 h post infection, 1 h compound pre-incubation, 10 µM, inhibitor
Compound,229E Inhibition rate [%],"229E Inhibition rate (229E Inhibition rate, 24 h) [%]"
C=C1[C@H]2CC[C@@H]3[C@H]2C(C)(C)CCC[C@]13C [(+)-Longifolene],0,–
O=C(O)C[C@@H]1C(=O)O[C@H]2[C@H](OC(=O)c3cc(O)c(O)c(O)c3)[C@@H](OC(=O)c3cc(O)c(O)c4c3[C@H]1[C@@H](O)C(=O)O4)[C@H](OC(=O)c1cc(O)c(O)c(O)c1)O[C@@H]2COC(=O)c1cc(O)c(O)c(O)c1 [Chebulinic acid],6.2,–
CN[C@H]1C[C@@H](N)[C@H](O)[C@@H](O[C@@H]2O[C@H](CO)[C@H](O)[C@@H]3OC4(O[C@H]23)O[C@H]([C@@H](N)CO)[C@H](O)[C@H](O)[C@H]4O)[C@@H]1O (stereo partly shown) [Hygromycin B],47.6,–
Nc1nc(=O)c2c([nH]1)NC[C@@H](CNc1ccc(C(=O)N[C@@H](CCC(=O)O)C(=O)O)cc1)N2C=O [Folinic acid],23,–
C[N+](C)(C)[O-] [Trimethylamine N-oxide (dihydrate)],–,14.1
CCCCCCCCCCCCCCCCCCCO [1-Nonadecanol],26.2,–
CC(C)(c1ccc(O)cc1)c1ccc(O)cc1 [Bisphenol A],30.1,–
O=C(O)CC(O)(CC(=O)OCc1ccc(O[C@@H]2O[C@H](CO)[C@@H](O)[C@H](O)[C@H]2O)cc1)C(=O)O (stereo partly shown) [Parishin E],5.9,–
C[C@H](CC[C@@H](O[C@@H]1O[C@H](CO[C@@H]2O[C@H](CO)[C@@H](O)[C@H](O)[C@H]2O)[C@@H](O)[C@H](O)[C@H]1O)C(C)(C)O)[C@H]1CC[C@@]2(C)[C@@H]3CC=C4[C@@H](CC[C@H](O[C@@H]5O[C@H](CO)[C@@H](O)[C@H](O)[C@H]5O)C4(C)C)[C@]3(C)[C@H](O)C[C@]12C [Mogroside III],27.4,–
COc1ccc2[nH]cc(CCO)c2c1 [5-Methoxytryptophol],10,–
CC/C=C\C/C=C\C/C=C\C/C=C\C/C=C\CCCCCC(=O)O [Docosapentaenoic acid (22n-3)],11.1,–
COc1ccc(-c2coc3cc(O[C@@H]4O[C@H](CO[C@@H]5OC[C@@H](O)[C@H](O)[C@H]5O)[C@@H](O)[C@H](O)[C@H]4O)c(OC)c(O)c3c2=O)cc1 [Kakkalide],6.1,–
C[C@H](CC[C@@H](O)C(C)(C)O)[C@H]1CC[C@@]2(C)[C@@H]3CC=C4[C@@H](CC[C@H](O[C@@H]5O[C@H](CO)[C@@H](O)[C@H](O)[C@H]5O)C4(C)C)[C@]3(C)[C@H](O)C[C@]12C [Mogroside I E1],8.2,–
C[C@]12CC[C@@H]3c4ccc(OS(=O)(=O)O)cc4CC[C@H]3[C@@H]1CCC2=O [Estrone sulfate (sodium)],–,33
C[C@@]12C[C@@]3(O)O[C@@H](O1)[C@]1(COC(=O)c4ccccc4)[C@H]3C[C@@]12O[C@@H]1O[C@H](CO)[C@@H](O)[C@H](O)[C@H]1O [Paeoniflorin],6.8,–
Cc1coc2c1C(=O)C(=O)c1c-2ccc2c(C)cccc12 [Tanshinone I],10.2,–
COc1cc(/C=C/c2ccccc2)oc(=O)c1 [Desmethoxyyangonin],12,–
CCCCCC/C=C/CCCCCCCCCC(=O)O [trans-Vaccenic acid],36.5,–
Sc1nc2ccccc2s1 [2-Mercaptobenzothiazole],0,–
O=C(O)CNC(=O)c1cccnc1 [Nicotinuric acid],15.7,–

# 4 entries from above, tab-delimited.
Compound	229E Inhibition rate [%]	229E Inhibition rate (229E Inhibition rate, 24 h) [%]
C[C@@]12C[C@@]3(O)O[C@@H](O1)[C@]1(COC(=O)c4ccccc4)[C@H]3C[C@@]12O[C@@H]1O[C@H](CO)[C@@H](O)[C@H](O)[C@H]1O [Paeoniflorin]	6.8	–
Cc1coc2c1C(=O)C(=O)c1c-2ccc2c(C)cccc12 [Tanshinone I]	10.2	–
COc1cc(/C=C/c2ccccc2)oc(=O)c1 [Desmethoxyyangonin]	12	–
CCCCCC/C=C/CCCCCCCCCC(=O)O [trans-Vaccenic acid]	36.5	–

# Additional compounds follow.

Compound,229E Inhibition rate [%],"229E Inhibition rate (229E Inhibition rate, 24 h) [%]"
COc1ccc2cc1Oc1ccc(cc1)C[C@H]1c3cc(c(OC)cc3CCN1C)Oc1c(OC)c(OC)cc3c1[C@H](C2)N(C)CC3 [tetrandrine],4.2,–
Nc1[nH]cnc2ncnc1-2 [Adenine],–,24.2
C=C(CCC=C(C)C)[C@H]1CC[C@]2(C)[C@@H]1[C@H](O)C[C@@H]1[C@@]3(C)C[C@@H](O)[C@H](O[C@@H]4O[C@H](CO)[C@@H](O)[C@H](O)[C@H]4O[C@@H]4O[C@H](CO)[C@@H](O)[C@H](O)[C@H]4O)C(C)(C)[C@@H]3CC[C@]12C [Damulin B],3.3,–
COc1ccc(C(=O)/C=C/c2ccccc2)cc1 [4'-Methoxychalcone],28.4,–
O=c1c(O)c(-c2ccc(O)c(O)c2)oc2cc(O)c(O)c(O)c12 [Quercetagetin],23,–
CN[C@H](CC(C)C)C(=O)N[C@H]1C(=O)N[C@@H](CC(N)=O)C(=O)N[C@H]2C(=O)N[C@H]3C(=O)N[C@H](C(=O)N[C@H](C(=O)O)c4cc(O)cc(O)c4-c4cc3ccc4O)[C@H](O)c3ccc(c(Cl)c3)Oc3cc2cc(c3O[C@@H]2O[C@H](CO)[C@@H](O)[C@H](O)[C@H]2O[C@H]2C[C@](C)(N)[C@H](O)[C@H](C)O2)Oc2ccc(cc2Cl)[C@H]1O [Vancomycin],–,11.7
O=c1oc2cc(O)ccc2c2oc3cc(O)ccc3c12 [Coumestrol],16.6,–
Oc1cc(O)cc(/C=C/c2ccc(O)cc2O)c1 [Oxyresveratrol],15,–
NCc1c[nH]c2ccccc12 [Indole-3-methanamine],10.2,–
c1c2c(cc3c1OCO3)-c1cc3ccc4c(c3c[n+]1CC2)OCO4 [Coptisine (Sulfate)],–,3.5
O=CN1C[C@@H]2C[C@H](C1)c1cccc(=O)n1C2 [N-Formylcytisine],32.3,–
C=C1C(=O)O[C@@H]2C[C@@]3(C)CCC[C@H](C)C3=C[C@H]12 [Alantolactone],2.9,–
CC(=O)NCCCCNCCCN [N8-Acetylspermidine dihydrochloride],37.4,–
C[C@@H]1CC(=O)c2c(ccc3c2C(=O)c2cccc(O)c2C3=O)C1 [Ochromycinone],13.2,–
Cc1cc(O)cc2c1O[C@](C)(CCC[C@H](C)CCC[C@H](C)CCCC(C)C)CC2 [Delta-Tocopherol],8.2,–
O[C@H]1[C@H]2c3cc4c(cc3CN3CCC(=C[C@@H]1O)[C@H]23)OCO4 [Lycorine],38.3,–
C[C@@H]1O[C@@H](O[C@H]2[C@H](Oc3cc(O)c(C(=O)CCc4ccc(O)cc4)c(O)c3)O[C@H](CO)[C@@H](O)[C@@H]2O)[C@H](O)[C@H](O)[C@H]1O [Naringin Dihydrochalcone],40.6,–
COc1cc(/C=C/C(=O)OC2[C@H](O)CC(O)(C(=O)O)C[C@H]2O)ccc1O (stereo partly shown) [4-Feruloylquinic acid],20.4,–
CCCCCCCCC=O [Nonanal],9.1,–
CCCCC[C@@H](O)[C@H]1C(=O)O[C@H](C)[C@@H](O)/C=C/C=C/C=C/C=C/C=C(\C)[C@@H](O)[C@H](O)[C@H](O)C[C@H](O)C[C@H](O)C[C@H](O)C[C@H](O)C[C@@H]1O [Lagosin],21.5,–

Compound,229E Inhibition rate [%],"229E Inhibition rate (229E Inhibition rate, 24 h) [%]"
"O=c1[nH]c(=O)c2nccnc2[nH]1 [Pteridine-2,4(1H,3H)-dione]",15.9,–
CC(=O)c1c(O)c(C)c(O)c(Cc2c(O)c3c(c(C(=O)/C=C/c4ccccc4)c2O)OC(C)(C)C=C3)c1O [Rottlerin],3.7,–
OC[C@H]1NCC[C@@H](O)[C@@H]1O [Fagomine],9.8,–
CC(=O)c1ccc(O)c(C)c1 [4'-Hydroxy-3'-methylacetophenone],11.7,–
CCCCCCCCCCCCCCCCCCCCC(=O)O [Heneicosanoic acid],8.6,–
CC[C@H](O)C(=O)O [(S)-2-Hydroxybutanoic acid],13.1,–
CC(C)=CCC[C@@](C)(O)[C@H]1CC[C@]2(C)[C@@H]1[C@H](O)C[C@@H]1[C@@]3(C)C[C@@H](O)[C@H](O[C@@H]4O[C@H](CO)[C@@H](O)[C@H](O)[C@H]4O[C@@H]4O[C@H](CO)[C@@H](O)[C@H](O)[C@H]4O)C(C)(C)[C@@H]3CC[C@]12C [Gypenoside LI],0,–
CC(C)(O)[C@H]1CC[C@@](C)([C@H]2[C@@H](O)C[C@@]3(C)[C@@H]4C[C@H](O)[C@H]5C(C)(C)[C@@H](O)CC[C@@]56C[C@@]46CC[C@]23C)O1 [Cyclogalegenin],12.6,–
CC1(C)CCC2=C(O1)c1ccccc1C(=O)C2=O [β-Lapachone],1.2,–
Nc1ncnc2c1ncn2[C@@H]1O[C@H](CO)[C@@H](O)[C@H]1OP(=O)(O)O [Adenosine-2'-monophosphate],18.6,–
COc1ccc(/C=C/C(=O)c2ccc(OC)c3c2OC(C)(C)C=C3)cc1 [Millepachine],40,–
NCCc1ccc(O)cc1 [Tyramine],–,6.6
COc1ccc(C[C@@H]2COc3c(C)c(O)c(C)c(O)c3C2=O)cc1 [Methylophiopogonanone B],26.7,–
CC1(C)CC[C@]2(C(=O)O)[C@H](O)C[C@]3(C)C(=CC[C@@H]4[C@@]5(C)CC[C@H](O)[C@@](C)(C=O)[C@@H]5CC[C@]43C)[C@@H]2C1 [Quillaic acid],8.1,–
O=C(O)CCCC[C@@H]1SC[C@@H]2NC(=O)N[C@@H]21 [Biotin],15,–
COc1c2c(cc3oc(C)cc(=O)c13)O[C@H](C(C)(C)O)C2 [5-O-Methylvisamminol],9.3,–
C=C1CC[C@H]2O[C@]2(C)CC[C@@H]2[C@@H]1CC2(C)C [Caryophyllene oxide],16.3,–
COc1cc(C[C@@H](C)[C@@H](C)Cc2ccc(O)c(OC)c2)ccc1O [Dihydroguaiaretic acid],46.5,–
